Results as given in patent publication US8420642B2, “Pyridine derivatives useful as glucokinase activators” (Merck Patent GmbH, priority 2007, dated 2013).
At least one structure is not confirmed: it was looked up by name or label, or the drawing left a doubt.

Molecular target: T1, glucokinase (GK), human enzyme (Homo sapiens, UniProt P35557)
T1 sequence (P35557 1-465): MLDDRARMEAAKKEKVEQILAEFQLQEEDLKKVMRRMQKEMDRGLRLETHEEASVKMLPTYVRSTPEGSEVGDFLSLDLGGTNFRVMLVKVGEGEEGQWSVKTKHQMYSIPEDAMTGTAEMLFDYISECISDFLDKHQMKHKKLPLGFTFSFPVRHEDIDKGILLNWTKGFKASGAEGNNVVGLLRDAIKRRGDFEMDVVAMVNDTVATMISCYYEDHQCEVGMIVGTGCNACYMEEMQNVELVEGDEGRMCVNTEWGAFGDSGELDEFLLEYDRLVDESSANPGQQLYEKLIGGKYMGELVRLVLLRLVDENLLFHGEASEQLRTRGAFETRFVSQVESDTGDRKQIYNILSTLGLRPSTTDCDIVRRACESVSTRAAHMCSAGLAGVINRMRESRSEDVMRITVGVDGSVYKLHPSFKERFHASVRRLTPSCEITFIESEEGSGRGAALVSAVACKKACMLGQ
Test: Glucokinase Activation Screening Assay (coupled enzyme assay with PK/LDH, NADH decline at 340 nm)
Format: biochemical
Settings: relative to control incubation with 2 mM glucose
Experimental: Glucokinase Activation Screening Assay
GK activity (human or rat enzyme) is measured by an coupled enzyme assay using pyruvate kinase (PK) and lactate dehydrogenase (LDH) as coupling enzymes. GK activity is calculated from the decline in NADH monitored photometrically with a microtiter plate (MTP) reader at 340 nm. For screening purposes, the GK assay is routinely run in a 384-MTP format, in a total volume of 33 μl/well. 10 μl of the ATP-regeneration solution (in HEPES-buffer*, pH 7.0, 6.73 U/ml pyruvate kinase, 6.8 U/ml lactate dehydrogenase) and 10 μl of the glucokinase-/glucose solution (15 μg/ml, 6.6 mM glucose in HEPES-buffer*, pH 7.0; the concentration of the glucose stock-solution was 660 mM in Millipore H2O) were mixed together with 3 μl of a 10% DMSO solution (in HEPES-buffer*, pH 7.0) containing 3.3-fold the amounts of the compounds to achieve final compound concentrations in the range between 1 nM to 30 μM (sometimes 300 μM) in the assay solution (s. below). […]
The reaction was started by the addition of 10 μl of the NADH-/ATP-solution (4.29 mM NADH, 4.95 mM ATP, in HEPES-buffer*). The MTP was shaken for 5 sec., and then, the absorbance at 340 nm was monitored continuously in a MTP-reader (TECAN Spectro fluor plus) for the next 27 min (with a MTP-cycling time of 199 sec.). […]

## Cn1ccc(Nc2ccc(OCc3ccccc3)cn2)n1 [A11, (5-benzyloxy-pyridine-2-yl)-(ethyl-1H-pyrazole-3-yl)amine]
  fold activation (human): D (fold activation: 1.2-5 μM = D)
